No constants are given. Whether binding was seen depends on the method and setting. Some binding calls cover weakened binding; strength is not graded here. Sequences can lack the tags named with a protein.
Tests used:
[1] = biological target: recombinant mouse PCSK9 (mouse) (UniProt Q80W65); experiment: SPR (Biacore 3000)
[2] = biological target: recombinant mouse PCSK9 (mouse) (UniProt Q80W65); experiment: ELISA, blocking: 0.31nM biotinylated mouse PCSK9 binding to immobilized LDLR extracellular domain, pH 7.5
[3] = biological target: recombinant mouse PCSK9 (mouse) (UniProt Q80W65); experiment: ELISA, blocking: 0.31 nM biotinylated mouse PCSK9 binding to immobilized LDLR extracellular domain, pH 5.3
[4] = biological target: recombinant mouse PCSK9 (mouse) (UniProt Q80W65); experiment: ELISA, blocking: biotinylated mouse PCSK9 (0.8nM) binding to immobilized human LDLR extracellular domain, pH7.5

Protein sequences, listed by entry. Tags and fused reporters are not part of them. Lines headed by an entry give the natural chain unless they say otherwise; changes in a name come on top. Chains listed by the source or under a name are the forms on record and can include a tag or linker.
recombinant mouse PCSK9 (Q80W65, form named): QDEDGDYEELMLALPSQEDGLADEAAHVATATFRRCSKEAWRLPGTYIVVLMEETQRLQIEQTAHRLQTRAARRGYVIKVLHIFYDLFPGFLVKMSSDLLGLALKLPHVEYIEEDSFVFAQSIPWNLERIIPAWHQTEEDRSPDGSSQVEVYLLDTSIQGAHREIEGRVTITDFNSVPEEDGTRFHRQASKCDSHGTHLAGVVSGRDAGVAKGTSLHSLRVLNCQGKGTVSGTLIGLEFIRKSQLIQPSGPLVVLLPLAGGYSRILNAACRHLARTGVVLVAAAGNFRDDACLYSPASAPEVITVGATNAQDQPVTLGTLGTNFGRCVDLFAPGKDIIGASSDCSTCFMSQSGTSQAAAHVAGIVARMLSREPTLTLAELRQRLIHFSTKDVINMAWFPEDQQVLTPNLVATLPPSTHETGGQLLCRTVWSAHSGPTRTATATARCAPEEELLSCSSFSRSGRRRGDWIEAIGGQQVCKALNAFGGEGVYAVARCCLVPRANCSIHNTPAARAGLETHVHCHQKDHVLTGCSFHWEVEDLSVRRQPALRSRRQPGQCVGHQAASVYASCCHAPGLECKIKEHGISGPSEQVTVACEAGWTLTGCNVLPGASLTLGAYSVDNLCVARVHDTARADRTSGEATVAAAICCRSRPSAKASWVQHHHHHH

Row | binding [1] | binding [2] | binding [3] | binding [4] | Binder
1 | binds | – | – | binds | anti-PCSK9 antagonist monoclonal antibody 6F6 (antibody, V domains shown) VH: EVQLQQSGPELVKPGASVKISCKASGYTFTDYYMNWVKQSHGKSLEWIGDINPNNGGTSYNQKFKGKATLTVDKSSSTAYMELRSLTSEDSAVYYCAGGGIYYRYDRNYFDYWGQGTTLTVSS VL: DIQMTQTTSSLSASLGDRVTISCSASQGISNYLNWYQQKPDGTVKLLIYYTSSLHSGVPSRFSGSGSGTDYSLTISNLEPEDIATYYCQQYSKLPFTFGSGTKLEIK
2 | binds | – | – | binds | anti-PCSK9 antagonist monoclonal antibody 7D4 (antibody, V domains shown) VH: EVKLVESEGGLVQPGSSMKLSCTASGFTFSDYYMAWVRQVPEKGLEWVANINYDGSNTSYLDSLKSRFIISRDNAKNILYLQMSSLKSEDTATYYCAREKFAAMDYWGQGTSVTVSS VL: DIVMTQSHKFMSTSFGDRVSITCKASQDVSNALAWYQQKPGHSPKLLIFSASYRYTGVPDRFTGSGSGTDFTFTISSVQAEDLAVYYCQQHYSTPWTFGGGTKLEIKR

Further lines, the binder ahead of its results:

Row | Binder | binding [1] | binding [2] | binding [3] | binding [4]
3 | anti-PCSK9 antagonist monoclonal antibody 5A10 (antibody, V domains shown) VH: QVQLQQPGAELVKPGASVKLSCKASGYTFTSYWMHWVKQRPGQGLEWIGEINPSNGRTNYNEKFKSKATLTVDKSSSTAYMQLSSLTSEDSAVYYCARERPLYAMDYWGQGTSVTVSS VL: DIVMTQSHKFMSTSVGDRVSITCKASQDVSTAVAWYQQKPGQSPKLLIYSASYRYTGVPDRFTGSGSGTDFTFTISSVQAEDLAVYYCQQRYSTPRTFGGGTKLEIKR | binds | binds | binds | binds
4 | anti-PCSK9 antagonist monoclonal antibody 4A5 (antibody, V domains shown) VH: EVQLQQSGPELVKPGASVKISCKASGYTFTDYYMNWVKQSHGKSLEWIGDINPNNGGTTYNQKFKGKATLTVDKSYSTAYMELRSLTSEDSAVYYCARWLLFAYWGQGTLVTVSA VL: DIVMTQSQKFMSTSVGDRVSVTCKASQNVGTNVAWYQQKPGQSPKALIYSASYRYSGVPDRFTGSGSGTDFTLTISNVLSEDLAEYFCQQFYSYPYTFGGGTKLEIKR | binds | – | – | binds
5 | L1L3 humanized anti-PCSK9 monoclonal antibody (antibody, V domains shown) VH: QVQLVQSGAEVKKPGASVKVSCKASGYTFTSYYMHWVRQAPGQGLEWMGEISPFGGRTNYNEKFKSRVTMTRDTSTSTVYMELSSLRSEDTAVYYCARERPLYASDLWGQGTTVTVSS VL: DIQMTQSPSSLSASVGDRVTITCRASQGISSALAWYQQKPGKAPKLLIYSASYRYTGVPSRFSGSGSGTDFTFTISSLQPEDIATYYCQQRYSLWRTFGQGTKLEIKR | – | binds | binds | –
